By UniProt entry, the sequences of proteins in these tests, tags left out. Where a name states a change or a piece, a line headed by the entry shows the natural chain unless it says otherwise.
UniProt Q96EB6: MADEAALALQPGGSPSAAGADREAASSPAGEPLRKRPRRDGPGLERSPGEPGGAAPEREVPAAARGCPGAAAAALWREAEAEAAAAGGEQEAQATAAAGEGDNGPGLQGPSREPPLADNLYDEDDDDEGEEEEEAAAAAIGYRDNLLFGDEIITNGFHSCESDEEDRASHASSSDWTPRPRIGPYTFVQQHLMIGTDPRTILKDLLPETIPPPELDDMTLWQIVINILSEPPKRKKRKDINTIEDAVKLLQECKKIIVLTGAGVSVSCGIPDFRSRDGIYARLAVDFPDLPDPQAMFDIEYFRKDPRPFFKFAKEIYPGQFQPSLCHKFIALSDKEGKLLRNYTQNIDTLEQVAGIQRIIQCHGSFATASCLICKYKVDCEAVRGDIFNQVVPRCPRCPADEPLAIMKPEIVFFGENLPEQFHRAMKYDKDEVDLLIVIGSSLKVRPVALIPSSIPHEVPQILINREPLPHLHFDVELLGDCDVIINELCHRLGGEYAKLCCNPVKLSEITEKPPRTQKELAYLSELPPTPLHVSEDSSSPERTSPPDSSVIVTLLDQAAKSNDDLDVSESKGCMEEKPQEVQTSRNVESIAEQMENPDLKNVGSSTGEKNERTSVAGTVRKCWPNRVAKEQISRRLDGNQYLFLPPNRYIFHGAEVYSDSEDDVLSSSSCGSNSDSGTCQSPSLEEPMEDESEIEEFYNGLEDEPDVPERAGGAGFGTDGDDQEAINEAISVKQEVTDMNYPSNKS
UniProt Q13547: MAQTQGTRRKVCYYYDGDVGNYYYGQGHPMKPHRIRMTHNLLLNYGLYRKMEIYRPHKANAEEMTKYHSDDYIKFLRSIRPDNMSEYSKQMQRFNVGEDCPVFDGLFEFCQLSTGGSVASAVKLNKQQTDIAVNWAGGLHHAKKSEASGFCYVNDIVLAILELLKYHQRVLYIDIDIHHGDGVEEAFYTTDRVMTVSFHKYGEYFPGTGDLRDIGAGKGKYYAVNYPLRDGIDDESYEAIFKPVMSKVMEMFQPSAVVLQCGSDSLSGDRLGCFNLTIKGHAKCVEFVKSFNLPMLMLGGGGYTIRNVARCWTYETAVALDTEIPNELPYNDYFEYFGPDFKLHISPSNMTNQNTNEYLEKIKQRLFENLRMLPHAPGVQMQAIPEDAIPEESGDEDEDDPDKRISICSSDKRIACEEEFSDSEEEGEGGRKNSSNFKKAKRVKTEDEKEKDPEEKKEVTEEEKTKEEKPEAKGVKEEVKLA

According to article PMC6459503:

Columns and labels:
Assay in all cases: co-IP; HEK293T co-transfected 1:1 for 48 h; lysis in 20 mM Tris-HCl pH 7.5, 150 mM NaCl, 1% Triton; IP with Flag antibody (IgG as control) overnight at 4°C, Protein A/G beads; blot for GFP, reprobed for Flag
[1] = biological target: Flag-tagged SIRT1 deletion construct Δ7 (UniProt Q96EB6)
[2] = biological target: Flag-tagged SIRT1 deletion construct Δ6 (UniProt Q96EB6)
[3] = biological target: Flag-tagged SIRT1 deletion construct Δ1 (UniProt Q96EB6)
[4] = biological target: Flag-tagged SIRT1 deletion construct Δ10 (UniProt Q96EB6)
[5] = biological target: Flag-tagged SIRT1 deletion construct Δ5 (UniProt Q96EB6)
[6] = biological target: Flag-tagged SIRT1 deletion construct Δ4 (UniProt Q96EB6)
[7] = biological target: Flag-tagged SIRT1 deletion construct Δ3 (UniProt Q96EB6)
[8] = biological target: Flag-tagged SIRT1 deletion construct Δ2 (UniProt Q96EB6)
[9] = biological target: Flag-tagged SIRT1 deletion construct Δ9 (UniProt Q96EB6)

binding [1] | binding [2] | binding [3] | binding [4] | binding [5] | binding [6] | binding [7] | binding [8] | binding [9] | Substance
binds | binds | binds | binds | binds | binds | binds | binds | binds | HDAC1-Δ56-GFP (from UniProt Q13547 57-482) (domain or fragment)
binds | binds | binds | binds | binds | binds | binds | binds | binds | HDAC1-GFP (from UniProt Q13547 1-482)

These are yes or no findings as the source states them, for the method shown. Binding seen in cells or lysates may run through a third protein. Binding can be weak; no strength is given.
